Assay results published in article doi:10.1101/2025.10.09.681391.
No constants are given. Whether binding was seen depends on the method and setting. Binding seen in cells or lysates may run through a third protein. Some results given as binding are weak or reduced against the parent protein; the word gives no strength.

Chains of the proteins cited; added tags and fusions are not shown. Residues count along the entry.
UniProt Q04721, residues 26-1677: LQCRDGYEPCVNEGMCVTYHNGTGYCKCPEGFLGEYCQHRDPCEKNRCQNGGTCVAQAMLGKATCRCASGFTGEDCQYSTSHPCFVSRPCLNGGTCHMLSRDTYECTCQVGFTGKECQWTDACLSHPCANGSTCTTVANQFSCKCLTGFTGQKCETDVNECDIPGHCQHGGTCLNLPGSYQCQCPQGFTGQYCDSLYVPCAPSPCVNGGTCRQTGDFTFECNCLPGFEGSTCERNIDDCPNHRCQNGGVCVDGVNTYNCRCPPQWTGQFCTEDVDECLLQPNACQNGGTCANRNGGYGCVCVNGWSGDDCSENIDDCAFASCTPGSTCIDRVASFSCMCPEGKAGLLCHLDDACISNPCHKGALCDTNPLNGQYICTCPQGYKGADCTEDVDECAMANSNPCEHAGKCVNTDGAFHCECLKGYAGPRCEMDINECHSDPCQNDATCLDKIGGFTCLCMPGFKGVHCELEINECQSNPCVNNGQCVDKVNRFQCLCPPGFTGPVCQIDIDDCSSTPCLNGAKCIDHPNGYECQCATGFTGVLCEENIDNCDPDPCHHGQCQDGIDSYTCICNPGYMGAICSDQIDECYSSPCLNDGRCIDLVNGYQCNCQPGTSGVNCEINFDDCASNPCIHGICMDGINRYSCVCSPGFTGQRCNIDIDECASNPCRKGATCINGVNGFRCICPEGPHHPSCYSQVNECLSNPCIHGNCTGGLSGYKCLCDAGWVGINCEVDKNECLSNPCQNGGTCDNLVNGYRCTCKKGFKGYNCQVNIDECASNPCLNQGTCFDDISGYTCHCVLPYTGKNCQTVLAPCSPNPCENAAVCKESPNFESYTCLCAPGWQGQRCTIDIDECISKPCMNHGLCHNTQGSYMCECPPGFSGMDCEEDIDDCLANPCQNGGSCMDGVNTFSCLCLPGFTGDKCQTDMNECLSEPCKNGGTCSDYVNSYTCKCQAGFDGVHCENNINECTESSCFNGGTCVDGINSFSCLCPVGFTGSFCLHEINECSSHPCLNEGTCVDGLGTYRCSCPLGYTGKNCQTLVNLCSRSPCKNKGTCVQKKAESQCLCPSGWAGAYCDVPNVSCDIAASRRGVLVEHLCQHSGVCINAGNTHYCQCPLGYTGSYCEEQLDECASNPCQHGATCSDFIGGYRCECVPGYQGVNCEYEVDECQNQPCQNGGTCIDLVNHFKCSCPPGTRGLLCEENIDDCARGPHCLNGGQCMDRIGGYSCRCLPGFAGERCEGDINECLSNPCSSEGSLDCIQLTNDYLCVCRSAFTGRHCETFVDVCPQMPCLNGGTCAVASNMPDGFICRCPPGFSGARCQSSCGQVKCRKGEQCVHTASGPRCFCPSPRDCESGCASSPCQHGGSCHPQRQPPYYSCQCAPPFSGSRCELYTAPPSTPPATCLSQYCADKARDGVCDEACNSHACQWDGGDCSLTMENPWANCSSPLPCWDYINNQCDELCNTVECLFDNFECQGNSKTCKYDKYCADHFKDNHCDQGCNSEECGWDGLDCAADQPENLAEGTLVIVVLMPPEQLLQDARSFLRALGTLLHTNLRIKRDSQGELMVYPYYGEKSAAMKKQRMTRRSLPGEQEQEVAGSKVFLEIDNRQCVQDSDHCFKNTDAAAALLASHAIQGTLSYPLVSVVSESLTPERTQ
UniProt P46531, residues 19-1796: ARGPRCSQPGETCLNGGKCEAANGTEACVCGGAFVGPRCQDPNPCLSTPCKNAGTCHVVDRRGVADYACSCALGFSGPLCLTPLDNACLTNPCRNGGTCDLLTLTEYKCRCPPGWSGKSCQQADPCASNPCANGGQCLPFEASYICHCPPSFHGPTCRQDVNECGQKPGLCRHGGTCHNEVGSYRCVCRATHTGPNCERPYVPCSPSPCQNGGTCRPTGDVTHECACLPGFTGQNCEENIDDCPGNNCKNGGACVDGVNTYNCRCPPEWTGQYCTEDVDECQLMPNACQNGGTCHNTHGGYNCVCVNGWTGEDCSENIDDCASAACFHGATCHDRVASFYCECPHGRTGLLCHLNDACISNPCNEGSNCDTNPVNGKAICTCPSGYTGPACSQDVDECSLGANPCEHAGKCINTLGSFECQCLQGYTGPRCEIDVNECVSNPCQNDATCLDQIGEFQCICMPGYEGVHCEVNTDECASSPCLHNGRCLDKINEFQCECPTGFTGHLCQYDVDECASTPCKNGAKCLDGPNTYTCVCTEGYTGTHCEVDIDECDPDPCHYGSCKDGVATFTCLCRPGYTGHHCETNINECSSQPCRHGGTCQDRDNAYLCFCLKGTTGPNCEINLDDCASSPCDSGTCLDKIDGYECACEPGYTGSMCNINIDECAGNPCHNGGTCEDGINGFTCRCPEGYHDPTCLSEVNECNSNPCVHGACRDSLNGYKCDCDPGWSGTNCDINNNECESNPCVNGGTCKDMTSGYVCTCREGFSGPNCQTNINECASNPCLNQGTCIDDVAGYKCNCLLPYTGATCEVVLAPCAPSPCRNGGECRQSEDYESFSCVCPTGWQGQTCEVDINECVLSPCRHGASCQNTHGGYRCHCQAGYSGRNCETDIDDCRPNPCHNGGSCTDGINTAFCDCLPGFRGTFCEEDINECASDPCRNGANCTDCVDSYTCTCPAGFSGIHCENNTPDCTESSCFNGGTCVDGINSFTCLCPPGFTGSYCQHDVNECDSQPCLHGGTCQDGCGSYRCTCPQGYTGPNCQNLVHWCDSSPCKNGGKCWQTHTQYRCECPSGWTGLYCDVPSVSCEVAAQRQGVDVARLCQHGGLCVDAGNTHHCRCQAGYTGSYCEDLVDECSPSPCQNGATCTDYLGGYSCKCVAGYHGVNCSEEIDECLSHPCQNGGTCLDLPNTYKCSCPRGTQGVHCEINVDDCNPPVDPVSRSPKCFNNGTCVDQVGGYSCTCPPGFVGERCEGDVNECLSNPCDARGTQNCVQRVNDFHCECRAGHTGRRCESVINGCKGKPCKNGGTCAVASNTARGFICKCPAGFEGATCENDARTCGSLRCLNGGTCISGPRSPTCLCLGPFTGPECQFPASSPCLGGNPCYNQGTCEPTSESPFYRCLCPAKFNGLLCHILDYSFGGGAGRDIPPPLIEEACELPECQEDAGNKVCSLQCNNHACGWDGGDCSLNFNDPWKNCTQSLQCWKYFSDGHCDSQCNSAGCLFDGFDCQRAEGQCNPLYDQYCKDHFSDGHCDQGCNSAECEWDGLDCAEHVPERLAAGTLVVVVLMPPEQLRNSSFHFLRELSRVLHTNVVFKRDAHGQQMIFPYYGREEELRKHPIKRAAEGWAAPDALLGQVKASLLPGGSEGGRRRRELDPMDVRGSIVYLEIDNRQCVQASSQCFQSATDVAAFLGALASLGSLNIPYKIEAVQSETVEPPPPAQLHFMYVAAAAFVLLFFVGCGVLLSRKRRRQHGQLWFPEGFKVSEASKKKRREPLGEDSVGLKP

Key:
[1] = molecular target: FLAG-tagged NOTCH2 extracellular domain (human) (UniProt Q04721); assay: co-IP
[2] = molecular target: FLAG-tagged NOTCH1 extracellular domain (human) (UniProt P46531); assay: co-IP

- binding [1]: binds
- binding [2]: binds
B1: full-length human CNTN6-3xHA (protein, UniProt Q9UQ52 20-999)
chain: DGLLSRPIFTQEPHDVIFPLDLSKSEVILNCAANGYPSPHYRWKQNGTDIDFTMSYHYRLDGGSLAINSPHTDQDIGMYQCLATNLLGTILSRKAKLQFAYIEDFETKTRSTVSVREGQGVVLLCGPPPHFGDLSYAWTFNDNPLYVQEDNRRFVSQETGNLYIAKVEPSDVGNYTCFITNKEAQRSVQGPPTPLVQRTDGVMGEYEPKIEVRFPETIQAAKDSSVKLECFALGNPVPDISWRRLDGSPLPGKVKYSKSQAILEIPNFQQEDEGFYECIASNLRGRNLAKGQLIFYAPPEWEQKIQNTHLSIYDNLLWECKASGKPNPWYTWLKNGERLNPEERIQIENGTLIITMLNVSDSGVYQCAAENKYQIIYANAELRVLASAPDFSKSPVKKKSFVQVGGDIVIGCKPNAFPRAAISWKRGTETLRQSKRIFLLEDGSLKIYNITRSDAGSYTCIATNQFGTAKNTGSLIVKERTVITVPPSKMDVTVGESIVLPCQVSHDPSIEVVFVWFFNGDVIDLKKGVAHFERIGGESVGDLMIRNIQLHHSGKYLCTVQTTLESLSAVADIIVRGPPGPPEDVQVEDISSTTSQLSWRAGPDNNSPIQIFTIQTRTPFSVGWQAVATVPEILNGKTYNATVVGLSPWVEYEFRVVAGNSIGIGEPSEPSELLRTKASVPVVAPVNIHGGGGSRSELVITWESIPEELQNGEGFGYIIMFRPVGSTTWSKEKVSSVESSRFVYRNESIIPLSPFEVKVGVYNNEGEGSLSTVTIVYSGEDEPQLAPRGTSLQSFSASEMEVSWNAIAWNRNTGRVLGYEVLYWTDDSKESMIGKIRVSGNVTTKNITGLKANTIYFASVRAYNTAGTGPSSPPVNVTTKKSPPSQPPANIAWKLTNSKLCLNWEHVKTMENESEVLGYKILYRQNRQSKTHILETNNTSAELLVPFEEDYLIEIRTVSDGGDGSSSEEIRIPKMSSLSS
